Earlier results in EP2843044A1, “Improved variant of D-psicose 3-epimerase and uses thereof” (Roquette Frères, priority 2013, dated 2015).
The name of at least one read-out is uncertain.

Tests used:
[1] = molecular target: T1, C. bolteae DPEase, SEQ ID No 9 (Enterocloster bolteae, UniProt A8RG82); conditions: Reference: Jia et al. 2013; value converted from the original reference with the unit of mM^-1 s^-1; cited from earlier work
T1 sequence (A8RG82 1-301): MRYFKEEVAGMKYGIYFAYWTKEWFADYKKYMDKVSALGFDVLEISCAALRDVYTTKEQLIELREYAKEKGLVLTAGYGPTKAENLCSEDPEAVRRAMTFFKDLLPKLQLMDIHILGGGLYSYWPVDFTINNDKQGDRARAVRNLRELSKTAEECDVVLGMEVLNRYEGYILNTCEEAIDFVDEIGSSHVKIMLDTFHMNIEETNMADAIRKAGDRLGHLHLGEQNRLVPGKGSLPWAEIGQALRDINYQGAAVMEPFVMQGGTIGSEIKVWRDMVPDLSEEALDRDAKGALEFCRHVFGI

[2] = tested on: Clostridium sp. DPEase, SEQ ID No 5; conditions: Reference: Mu et al. 2013; cited from earlier work
[3] = molecular target: T2, D-psicose 3-epimerase (DPEase) from Clostridium cellulolyticum, wild type, SEQ ID No 2 (Ruminiclostridium cellulolyticum, UniProt B8I944); conditions: Reference: Mu et al. 2011; cited from earlier work
T2 construct: made in house; host or cells: Bacillus subtilis WB600 (pMA5)
T2 sequence (B8I944 1-293): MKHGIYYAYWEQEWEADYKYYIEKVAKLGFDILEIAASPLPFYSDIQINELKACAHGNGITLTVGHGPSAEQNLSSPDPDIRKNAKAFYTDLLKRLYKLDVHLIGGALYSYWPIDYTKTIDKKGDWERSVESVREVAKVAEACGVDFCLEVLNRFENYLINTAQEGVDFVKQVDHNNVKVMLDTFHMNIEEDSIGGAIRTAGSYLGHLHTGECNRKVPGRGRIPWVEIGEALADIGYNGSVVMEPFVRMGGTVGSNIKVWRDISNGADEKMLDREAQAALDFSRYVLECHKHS

Compound: O=C(CO)[C@@H](O)[C@H](O)[C@H](O)CO [D-fructose]
- kcat/Km for D-fructose [1]: 59.4^c mM^-1 min ^-1
- kcat/Km for D-fructose [2]: 58.7 mM^-1 min ^-1
- kcat/Km for D-fructose [3]: 62.7 mM^-1 min ^-1
